Measurements reported in PubChem BioAssay AID1159578 (Peter MacCallum Cancer Centre, 2015)

Aim: 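siRNA pools altering how lymphatic endothelial cells close a scratch wound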 (primary screen)
Cells: human lymphatic endothelial cells
Reagents: siRNA pool against human genes, 40 nM
Timing: 48 h after transfection
Measurement: 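High-content imaging of dye-stained cells in a scratch assay measures filled wound area and nuclei per well; duplicate means given as ratio to mock and robust z-score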
Scale: migration robust z-score: higher = faster migration into the scratch; nuclei per well: higher = more cells in the well
Active means: 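Migration changed when robust z exceeds 2 or falls below -2 and mean nuclei number is at least 3300; otherwise not called changed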
Meaning of the calls: active = migration changed; inactive = no migration change, or too few cells
Shown is a random part of about 18,000 reagents tested. About 1,030 of them (5.7%) were called active. 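Inactive calls also include pools with fewer than 3300 nuclei, whose migration was not assessed.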 Raw values are not corrected between plates. Entries without a mark were called inactive. The numbers tell different reagents against one gene apart. Further read-outs or replicates are left out here.

| gene symbol | reagent no. | migration robust z-score | migration class with cell-count check | nuclei per well, duplicate mean |
| --- | --- | --- | --- | --- |
| F2RL3 | 1 | -0.24 | migration z between -2 and 2; enough cells | 4874 |
| TRA2B | 1 | 0.89 | migration z between -2 and 2; enough cells | 5595 |
| GK2 | 1 | 1.32 | migration z between -2 and 2; enough cells | 7344 |
| WDR45 | 1 | 0.5 | migration z between -2 and 2; enough cells | 5562 |
| SCT | 1 | -0.56 | migration z between -2 and 2; enough cells | 4806 |
| CENPI | 1 | -1.32 | migration z between -2 and 2; enough cells | 7514 |
| TRIR | 1 | -1.39 | migration z between -2 and 2; enough cells | 5014 |
| RPL6 | 1 | -0.29 | migration z between -2 and 2; enough cells | 4249 |
| SHISA2 | 1 | 0.54 | migration z between -2 and 2; enough cells | 5206 |
| ARMC9 | 1 | -0.31 | migration z between -2 and 2; enough cells | 5805 |
| TRIM45 | 1 | 0.32 | migration z between -2 and 2; enough cells | 5948 |
| NUDT5 | 1 | 0.46 | migration z between -2 and 2; enough cells | 5406 |
| WDR7 | 1 | -0.6 | migration z between -2 and 2; enough cells | 6059 |
| MERTK | 1 | -0.21 | migration z between -2 and 2; enough cells | 5498 |
| COPG1 | 1 | -0.88 | migration z between -2 and 2; enough cells | 6167 |
| PPP1R11 | 1 | 0.51 | migration z between -2 and 2; enough cells | 4907 |
| TNFAIP2 | 1 | 1.12 | migration z between -2 and 2; enough cells | 4893 |
| C10orf71 | 1 | 1.87 | migration z between -2 and 2; enough cells | 4938 |
| C1orf220 | 1 | -0.56 | migration z between -2 and 2; enough cells | 5194 |
| ERMP1 | 1 | 0.37 | migration z between -2 and 2; enough cells | 6543 |
| RAPH1 | 1 | 2.08 (active) | migration z above 2; enough cells | 5752 |
| KIF21B | 1 | -0.36 | migration z between -2 and 2; enough cells | 6536 |
| RNASEH2B | 1 | -0.24 | migration z between -2 and 2; enough cells | 6077 |
| UBXN2A | 1 | 0.76 | migration z between -2 and 2; enough cells | 5446 |
| RLN1 | 1 | -0.1 | migration z between -2 and 2; enough cells | 5464 |
| FAM193A | 1 | 0.17 | migration z between -2 and 2; enough cells | 4616 |
| TMEM258 | 1 | -0.79 | migration z between -2 and 2; enough cells | 5606 |
| ZNF80 | 1 | 0.03 | migration z between -2 and 2; enough cells | 4115 |
| MYO16 | 1 | -0.2 | migration z between -2 and 2; enough cells | 5888 |
| AS3MT | 1 | -1.94 | under 3300 nuclei; migration not judged | 3144 |
| ATL2 | 1 | 0.59 | migration z between -2 and 2; enough cells | 7359 |
| OR1N2 | 1 | 0.6 | migration z between -2 and 2; enough cells | 5255 |
| SRRD | 1 | 0.26 | migration z between -2 and 2; enough cells | 6048 |
| NMD3 | 1 | -0.62 | migration z between -2 and 2; enough cells | 6640 |
| HCST | 1 | -0.75 | migration z between -2 and 2; enough cells | 5734 |
| AP1M1 | 1 | -0.28 | migration z between -2 and 2; enough cells | 7297 |
| DQX1 | 1 | 0.91 | migration z between -2 and 2; enough cells | 6240 |
| MTSS2 | 1 | 0.79 | migration z between -2 and 2; enough cells | 6653 |
| IFT80 | 1 | 1.02 | migration z between -2 and 2; enough cells | 5419 |
| ZNF302 | 1 | 0.52 | migration z between -2 and 2; enough cells | 5280 |
| NSUN2 | 1 | 1.02 | migration z between -2 and 2; enough cells | 6064 |
| HOXA9 | 1 | 0.96 | migration z between -2 and 2; enough cells | 5512 |
| ADGRL3 | 1 | 0.21 | migration z between -2 and 2; enough cells | 7156 |
| EGFL7 | 1 | -1.21 | migration z between -2 and 2; enough cells | 4440 |
| WSCD2 | 1 | -1.98 | migration z between -2 and 2; enough cells | 7062 |
| AP1M2 | 1 | -0.47 | migration z between -2 and 2; enough cells | 6208 |
| SNX29 | 1 | -1.21 | migration z between -2 and 2; enough cells | 6312 |
| SNX29 | 2 | 0.02 | migration z between -2 and 2; enough cells | 6138 |
| HTN1 | 1 | 0.04 | migration z between -2 and 2; enough cells | 4397 |
| ORAI3 | 1 | -0.7 | migration z between -2 and 2; enough cells | 8720 |
| SPEM2 | 1 | -0.88 | migration z between -2 and 2; enough cells | 5025 |
| CENPO | 1 | -2.42 (active) | migration z below -2; enough cells | 6157 |
| VAV3 | 1 | -2.1 (active) | migration z below -2; enough cells | 3856 |
| TTC8 | 1 | -0.27 | migration z between -2 and 2; enough cells | 4676 |
| ACTL8 | 1 | -2.66 (active) | migration z below -2; enough cells | 5694 |
| SEC11C | 1 | 1.15 | migration z between -2 and 2; enough cells | 5168 |
| RPL19 | 1 | -0.05 | migration z between -2 and 2; enough cells | 4160 |
